# Measured values as given in PubChem BioAssay AID248 (DTP/NCI, 2004).
# The list is a part of this screen's results and no random one: it is rich in T/C values a quarter to a half above the control, in often repeated tests (any T/C) and in doses without a T/C. Other doses and runs of a compound stand elsewhere. T/C: endpoint of the treated group in % of that of the vehicle group. Some entries give survivors of the animals treated and no T/C: the source files T/C as zero there, which appears to mark a toxic dose or a test without result, not a measured value. Some survivor counts are full or nearly so, which does not show that the dose was tolerated: the source hardly ever lists a survival T/C far under the control, and the zero likely stands for such cases as well. Survivors were counted at the toxicity check, usually on the fifth day, unless a day is given; later deaths do not show. Schedules are NCI's codes, taken here to give the interval after Q, in days (D) or hours (H), and the number of doses after X. Some entries were tested several times; their values stand side by side, smallest first. Some structures stand for samples that the source files as different forms (salt, stereo form or complex); doses refer to the form tested. Some schedule codes hold Z or #, which are not explained here. Signs of the kind (2×) count equal records among those shown. For survival time, the PubChem record calls one and a half times the control and up active, and a quarter to a half above the control has no call in these data; cut-offs in other NCI protocols can differ. Some T/C values are followed by the survivors on the day toxicity was checked, most often the fifth; without a count, all were alive then.
# System: L1210 leukemia ip in BDF1 mice, survival T/C
# Assay: NCI In Vivo Anticancer Drug Screen. Data for tumor model L1210 Leukemia (intraperitoneal) in B6D2F1 (BDF1) mice
# Conditions: T/C endpoint: mean survival time, higher T/C = longer survival
# [1] = dose: 12.5 mg/kg/injection, schedule: Q01DX009 (ip), vehicle: Klucel (hydroxypropylcellulose) (HPC)
# [2] = dose: 25.0 mg/kg/injection, schedule: Q01DX009 (ip), vehicle: Klucel (hydroxypropylcellulose) (HPC)
# [3] = dose: 50.0 mg/kg/injection, schedule: Q01DX009 (ip), vehicle: Klucel (hydroxypropylcellulose) (HPC)
# [4] = dose: 100.0 mg/kg/injection, schedule: Q04DX003 (ip), vehicle: Klucel (hydroxypropylcellulose) (HPC)
# [5] = dose: 200.0 mg/kg/injection, schedule: Q04DX003 (ip), vehicle: Klucel (hydroxypropylcellulose) (HPC)
# [6] = dose: 400.0 mg/kg/injection, schedule: Q04DX003 (ip), vehicle: Klucel (hydroxypropylcellulose) (HPC)
# [7] = dose: 200.0 mg/kg/injection, schedule: Q01DX009 (ip), vehicle: Klucel (hydroxypropylcellulose) (HPC)
# [8] = dose: 100.0 mg/kg/injection, schedule: Q01DX009 (ip), vehicle: saline with Tween-80
# [9] = dose: 150.0 mg/kg/injection, schedule: Q01DX001 (ip), vehicle: saline
# [10] = dose: 300.0 mg/kg/injection, schedule: Q01DX001 (ip), vehicle: saline
smiles,measurement,setting,value
O=C(CCCN1CCC(O)(c2cccc(C(F)(F)F)c2)CC1)c1ccc(F)cc1,survivor count,"dose: 1.56 mg/kg/injection, schedule: Q03HX024 (ip), vehicle: Klucel (hydroxypropylcellulose) (HPC)",6 of 6
same,survivor count,"dose: 3.12 mg/kg/injection, schedule: Q03HX004 (ip), vehicle: Klucel (hydroxypropylcellulose) (HPC)",3 of 6
same,T/C,"dose: 6.25 mg/kg/injection, schedule: Q01DX009 (ip), vehicle: Klucel (hydroxypropylcellulose) (HPC)","90 [4 of 6 alive], 107, 110, 112, 116 % of control"
same,survivor count,"dose: 6.25 mg/kg/injection, schedule: Q03HX004 (ip), vehicle: Klucel (hydroxypropylcellulose) (HPC)",2 of 6
same,survivor count,"dose: 6.25 mg/kg/injection, schedule: Q03HX024 (ip), vehicle: Klucel (hydroxypropylcellulose) (HPC)",0 of 6 and 2 of 6
same,survivor count,"dose: 8.0 mg/kg/injection, schedule: Q01DX009 (ip), vehicle: Klucel (hydroxypropylcellulose) (HPC)",4 of 6
same,T/C,[1],"100, 105, 110, 116 % of control [5 of 6 alive]"
same,survivor count,[1],3 of 6
same,survivor count,"dose: 12.5 mg/kg/injection, schedule: Q03HX004 (ip), vehicle: Klucel (hydroxypropylcellulose) (HPC)",5 of 6
same,survivor count,"dose: 12.5 mg/kg/injection, schedule: Q03HX024 (ip), vehicle: Klucel (hydroxypropylcellulose) (HPC)",0 of 6 and 1 of 6
same,T/C,"dose: 12.5 mg/kg/injection, schedule: Q04DX003 (ip), vehicle: Klucel (hydroxypropylcellulose) (HPC)","94, 105 (2×), 125 % of control"
same,T/C,[2],"112 [5 of 6 alive], 114 [5 of 6 alive], 115, 132 % of control"
same,survivor count,[2],5 of 6
same,survivor count,"dose: 25.0 mg/kg/injection, schedule: Q03HX024 (ip), vehicle: Klucel (hydroxypropylcellulose) (HPC)",0 of 6 (2×)
same,T/C,"dose: 25.0 mg/kg/injection, schedule: Q04DX003 (ip), vehicle: Klucel (hydroxypropylcellulose) (HPC)","107 [3 of 4 alive], 108 [5 of 6 alive], 111, 131, 134, 142 % of control"
same,survivor count,"dose: 32.0 mg/kg/injection, schedule: Q01DX009 (ip), vehicle: Klucel (hydroxypropylcellulose) (HPC)",4 of 6
same,T/C,"dose: 50.0 mg/kg/injection, schedule: Q01DX001 (ip), vehicle: Klucel (hydroxypropylcellulose) (HPC)",130 % of control
same,T/C,[3],106 and 114 % of control
same,survivor count,[3],3 of 6
same,T/C,"dose: 50.0 mg/kg/injection, schedule: Q04DX003 (ip), vehicle: Klucel (hydroxypropylcellulose) (HPC)","122, 124, 126, 130 [5 of 6 alive], 137, 145 % of control"
same,survivor count,"dose: 64.0 mg/kg/injection, schedule: Q01DX009 (ip), vehicle: Klucel (hydroxypropylcellulose) (HPC)",1 of 6
same,T/C,[4],100 % of control
same,survivor count,[4],"0 of 4, 0 of 6 (2×), 2 of 6"
same,survivor count,"dose: 200.0 mg/kg/injection, schedule: Q01DX001 (ip), vehicle: Klucel (hydroxypropylcellulose) (HPC)",0 of 6
same,survivor count,[5],0 of 4 and 1 of 4
same,survivor count,"dose: 200.0 mg/kg/injection, schedule: Q04DX003 (ip), vehicle: saline",0 of 6
same,survivor count,"dose: 300.0 mg/kg/injection, schedule: Q01DX001 (ip), vehicle: Klucel (hydroxypropylcellulose) (HPC)",1 of 6
same,survivor count,[6],0 of 4 and 1 of 4
same,survivor count,"dose: 400.0 mg/kg/injection, schedule: Q04DX003 (ip), vehicle: saline",0 of 6
Clc1ccc(/C(=N\OC(c2ccccc2)c2ccccc2)c2ccccc2)cc1,survivor count,"dose: 100.0 mg/kg/injection, schedule: Q01DX001 (ip), vehicle: saline",6 of 6
CC/C=C(\C)C1(C(C)C)C(=O)NC(=O)NC1=O,survivor count,"dose: 150.0 mg/kg/injection, schedule: Q01DX001 (ip), vehicle: carboxymethylcellulose (CMC)",0 of 6
same,survivor count,"dose: 300.0 mg/kg/injection, schedule: Q01DX001 (ip), vehicle: carboxymethylcellulose (CMC)",0 of 6
C/C(=C\c1ccc2c(c1)OCO2)[N+](=O)[O-],survivor count,[7],2 of 6
same,survivor count,"dose: 200.0 mg/kg/injection, schedule: Q01DX009 (ip), vehicle: saline with Tween-80",3 of 3
same,survivor count,"dose: 400.0 mg/kg/injection, schedule: Q01DX009 (ip), vehicle: Klucel (hydroxypropylcellulose) (HPC)",0 of 6
CSc1ccc(NC(=O)Nc2ccc(N=Nc3ccccc3)cc2)cc1,survivor count,[4],6 of 6
same,survivor count,[5],6 of 6
same,survivor count,"dose: 255.0 mg/kg/injection, schedule: Q01DX009 (ip), vehicle: saline with Tween-80",1 of 6
same,survivor count,"dose: 385.0 mg/kg/injection, schedule: Q01DX009 (ip), vehicle: saline with Tween-80",0 of 6
same,survivor count,"dose: 400.0 mg/kg/injection, schedule: Q01DX001 (ip), vehicle: other",1 of 6
COc1cc(OC)c(NC(=O)Nc2cccc(Cl)c2C)cc1Cl,T/C,[8],89 and 95 % of control
same,survivor count,[8],3 of 3 and 6 of 6
CCOC(=O)c1cnc(SC)nc1N1CC1,survivor count,"dose: 1.0 mg/kg/injection, schedule: Q01DX Z (ip), vehicle: methylcellulose (MC)",1 of 6
same,survivor count,"dose: 3.0 mg/kg/injection, schedule: Q01DX Z (ip), vehicle: methylcellulose (MC)",0 of 6
same,survivor count,"dose: 6.0 mg/kg/injection, schedule: Q01DX Z (ip), vehicle: methylcellulose (MC)",0 of 6
same,survivor count,"dose: 12.0 mg/kg/injection, schedule: Q01DX Z (ip), vehicle: methylcellulose (MC)",0 of 6
same,survivor count,"dose: 25.0 mg/kg/injection, schedule: Q01DX Z (ip), vehicle: methylcellulose (MC)",1 of 6
same,survivor count,"dose: 50.0 mg/kg/injection, schedule: Q01DX Z (ip), vehicle: methylcellulose (MC)",0 of 6
same,survivor count,"dose: 100.0 mg/kg/injection, schedule: Q01DX Z (ip), vehicle: methylcellulose (MC)",0 of 6
same,survivor count,"dose: 200.0 mg/kg/injection, schedule: Q01DX Z (ip), vehicle: methylcellulose (MC)",0 of 6
Ic1ccc(NC2=NCCN2)c2ccccc12,survivor count,[5],1 of 6
same,survivor count,[6],0 of 6
Cc1ccc(S(=O)(=O)COS(=O)(=O)C(F)(F)F)cc1,survivor count,[6],4 of 6
Cc1c[n+]([O-])c(C)cc1N=Nc1ccc(N(C)C)cc1,survivor count,"dose: 400.0 mg/kg/injection, schedule: Q04DX002 (ip), vehicle: saline with Tween-80",2 of 3
CCCCC/C(=N\OC(=O)NC)C(F)(F)F,survivor count,"dose: 75.0 mg/kg/injection, schedule: Q01DX001 (ip), vehicle: saline",1 of 6
same,survivor count,[9],0 of 6
same,survivor count,[10],0 of 6
Cc1nonc1-c1nc(SCC(=O)NN)n[nH]1,survivor count,"dose: 100.0 mg/kg/injection, schedule: Q04DX002 (ip), vehicle: Klucel (hydroxypropylcellulose) (HPC)",1 of 3
CN=C(c1ccc(NC(=O)c2ccc(C(=O)Nc3ccc(C(=NC)N(C)C)cc3)cc2)cc1)N(C)C,survivor count,"dose: 15.0 mg/kg/injection, schedule: Q01DX Z (ip), vehicle: saline",0 of 6
same,survivor count,"dose: 30.0 mg/kg/injection, schedule: Q01DX Z (ip), vehicle: saline",0 of 6
same,survivor count,"dose: 60.0 mg/kg/injection, schedule: Q01DX Z (ip), vehicle: saline",0 of 6
same,survivor count,"dose: 120.0 mg/kg/injection, schedule: Q01DX Z (ip), vehicle: saline",0 of 6
O=S(=O)(O)c1ccc2c(ccc3ccccc32)c1,survivor count,[9],3 of 6
same,survivor count,[10],3 of 6
Cc1ccccc1-n1c(C)cc(=O)c(C(=O)Cl)c1C,survivor count,[6],0 of 6
O=[N+]([O-])c1ccc2c(c1)c(-c1cccc(-c3ccccc3)c1)nc1ccccc12,survivor count,"dose: 400.0 mg/kg/injection, schedule: Q04DX003 (ip), vehicle: saline with Tween-80",5 of 6
CN(C)/N=N/c1nc[nH]c1C#N,survivor count,"dose: 400.0 mg/kg/injection, schedule: Q01DX009 (ip), vehicle: saline with Tween-80",0 of 6
CC(=O)OC1CCC2(C)C3=C(CCC2C1(C)C)C1(C)CCC(C(C)CCC=C(C)C)C1(C)CC3 (stereo not drawn),survivor count,[7],3 of 3
